Reference: PubChem BioAssay AID1671190 (National Center for Advancing Translational Sciences (NCATS), 2021)
“And” between values parts separate entries of the source, which are not always exact repeats. Identical values can stand only once. About 6,100 (1.1%) of roughly 580,000 compounds were called active. Inconclusive means that the source gave no clear call. Such entries were picked first, then a sample of the others. Calls come from the whole dose curve; as a rule, active = well fitted inhibition curve with a large enough effect; inconclusive = small, poorly fitted or top-dose-only effect, or another doubt; inactive = no such curve, though single readings can be large or run the other way. Potencies of inconclusive entries are doubtful fits and often do not repeat.

Chains of the proteins cited; added tags and fusions are not shown. Lines headed by an entry give the natural chain unless they say otherwise; changes in a name come on top.
UniProt P18054: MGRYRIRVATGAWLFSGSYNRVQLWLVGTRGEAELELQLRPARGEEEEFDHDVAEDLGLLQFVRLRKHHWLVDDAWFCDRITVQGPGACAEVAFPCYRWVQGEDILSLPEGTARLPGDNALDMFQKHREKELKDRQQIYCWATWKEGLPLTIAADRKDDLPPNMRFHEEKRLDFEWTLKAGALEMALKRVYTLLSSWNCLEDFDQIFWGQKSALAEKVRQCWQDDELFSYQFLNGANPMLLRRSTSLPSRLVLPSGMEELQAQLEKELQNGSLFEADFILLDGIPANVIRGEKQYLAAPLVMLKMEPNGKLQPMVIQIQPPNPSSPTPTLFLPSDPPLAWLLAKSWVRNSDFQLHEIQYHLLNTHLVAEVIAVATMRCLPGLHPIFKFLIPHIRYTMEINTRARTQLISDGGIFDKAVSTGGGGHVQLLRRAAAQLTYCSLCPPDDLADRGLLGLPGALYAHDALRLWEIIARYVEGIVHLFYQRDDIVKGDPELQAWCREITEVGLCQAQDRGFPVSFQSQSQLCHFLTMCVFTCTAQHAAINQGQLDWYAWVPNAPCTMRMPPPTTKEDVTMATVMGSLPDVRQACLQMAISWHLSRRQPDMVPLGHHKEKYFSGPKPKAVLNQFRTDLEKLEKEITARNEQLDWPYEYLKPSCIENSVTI

These compounds were tested against Polyunsaturated fatty acid lipoxygenase ALOX12 (Homo sapiens) (UniProt P18054) (assay: Primary qHTS assay for inhibitors of human arachidonate 12S-lipoxygenase (ALOX12): Round 2). Conditions: purified 12hLO, xylenol orange hydroperoxide absorbance; activity change, negative = inhibition: at 108 µM (top of the series) unless noted.
In short: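 Purified human 12hLO at 150 nM in 25 mM Hepes, 0.01% Triton X-100, pH 7.0, preincubated 15 min at room temperature with compound. Reaction started with 40 uM arachidonic acid, 30 min at room temperature. Hydroperoxide measured by Fe-xylenol orange, 573/405 nm absorbance ratio.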
% is set by controls: 0 for no effect and ±100 for the full control effect; potency is the fitted concentration of half-maximal effect.

SMILES | activity change, negative = inhibition | Potency
CC(NC(=O)CCCn1c(=O)c2cccn2c2cccnc21)c1ccccc1 (stereo unspecified) | inconclusive: -31.2% [inhibitor] | 
CC1CC1C(=O)Nc1nc(-c2ccccn2)cs1 (stereo unspecified) |  | inconclusive: 63.1 µM [inhibitor, partial curve, poor fit]
CCCCSc1nnc2[nH]c(=O)cc(N)n12 |  | inactive
CCN1CCN(CCCOc2ccc(Cl)cc2Br)CC1 |  | inconclusive: 1.12 µM [inhibitor, full curve]
CCN(C[C@H]1N[C@@](C)(C(=O)OC)[C@H]2C(=O)N(C)C(=O)[C@@H]12)C(=O)C1CCCCC1 |  | inconclusive: 35.5 µM [inhibitor, partial curve, poor fit]
Cn1c(CCC(=O)Nc2ccc(S(C)(=O)=O)cc2)nc2cc(S(=O)(=O)N3CCOCC3)ccc21 |  | inactive
Cc1c(C(=O)Nc2cnccn2)oc2ccccc12 |  | inactive
C=CCN1C(=O)C(=O)N(Cc2coc(-c3ccc(C)cc3)n2)C1=O |  | inconclusive: 20 µM [inhibitor, partial curve, poor fit]
CCOc1ccc(C(=O)N[C@H]2CCOC[C@H]2C2CCOCC2)o1 |  | inactive
O=C(N/N=C/c1ccc2c(c1)OCO2)c1sc2cccc(Cl)c2c1Cl |  | inactive
COc1ccccc1-c1cncnc1N(C)Cc1ccco1 |  | inconclusive: 35.5 µM [inhibitor, partial curve, poor fit]
CCOC(=O)N1CCc2c(sc3c2c(=O)n(-c2ccc(CC)cc2)c(=O)n3CC(=O)c2ccc(F)cc2)C1 |  | inactive
CC(C)CCNC(=O)c1cnc2n1CCN(Cc1c[nH]c3ccccc13)CC2 |  | inactive
Cc1ncoc1C(=O)N1CC[C@@H]2COCCN(Cc3ccncc3)[C@@H]2C1 |  | inactive
COc1ccc(S(=O)(=O)N2CCOCC2)cc1C(=O)Nc1cccc(C(=O)NC2CC2)c1 |  | inactive
O=C1CC(Sc2ncccc2C(=O)O)C(=O)N1 (stereo unspecified) |  | inconclusive: 100 µM [inhibitor, single point]
COc1ccc(OCCN(C)CC(C#N)CCC#N)cc1 (stereo unspecified) |  | inactive
CC(=O)c1cccc(NC(=O)CCCOc2ccc(C)cc2)c1 |  | inactive
CCOC(=O)c1c(=O)n(O)c2ccc(OC)cc2[n+]1[O-] |  | inconclusive: 35.5 µM [inhibitor, partial curve, poor fit]
N#Cc1cccc(/C=C/C(=O)NCCc2cccs2)c1 |  | inconclusive: 89.1 µM [inhibitor, single point]
O=S(=O)(Cc1ccccc1F)CC1COc2ccccc2O1 (stereo unspecified) |  | inconclusive: 89.1 µM [inhibitor, single point]
CCOC(=O)CN1C(=O)S/C(=C/c2cc(C)n(C)c2C)C1=O |  | inconclusive: 31.6 µM [inhibitor, single point]
S=c1[nH]nc(-c2ccccc2)n1Cc1ccccc1 |  | inconclusive: 141 µM [inhibitor, partial curve, poor fit]
CSc1ccc(C2CC(=O)Nc3nc(SC)[nH]c(=O)c32)cc1 (stereo unspecified) |  | inactive

SMILES | activity change, negative = inhibition | Potency
C#Cc1ccc(NC(=O)C2(C)CCN2C(=O)Cc2ccc(C(C)C)cc2)cc1 (stereo unspecified) |  | inconclusive: 79.4 µM [inhibitor, single point]
CCN(C(=O)CSc1nc2ccccc2n1Cc1cc(C)ccc1C)c1ccccc1 |  | inactive
COc1cccc(N2CCN(C3C(=O)c4ccccc4N3C(C)=O)CC2)c1 (stereo unspecified) |  | inconclusive: 89.1 µM [inhibitor, partial curve, poor fit]
COc1ccc(OC)c(S(=O)(=O)Nc2ccc(O)c(Sc3ncn[nH]3)c2)c1 |  | inconclusive: 17.8 µM [inhibitor, full curve]
C[S+](=O)([O-])c1ccc(-c2cc3c(cn2)CN(CCc2ccccc2)CCN3)cc1 |  | inactive
CCNC(=S)Nc1ccc(Oc2ccccc2)cc1 |  | inconclusive: 39.8 µM [inhibitor, partial curve]
Cc1cccc(N=Nc2ccc(O)c3ncccc23)c1 |  | inconclusive: 39.8 µM [inhibitor, partial curve, poor fit]
C=CCNC(=O)C1CCCN(S(C)(=O)=O)C1 (stereo unspecified) |  | inconclusive: 2.51 µM [inhibitor, full curve, poor fit]
CC1CN(C(=O)CCn2cnc3sccc3c2=O)CCO1 (stereo unspecified) |  | inconclusive: 31.6 µM [inhibitor, partial curve, poor fit]
Cc1cc(OCc2nc(N)nc(N)c2-c2ccc(Cl)c(Cl)c2)ccc1[N+](=O)[O-] |  | inactive
Cc1ccc(NS(=O)(=O)c2ccc(N3CC(C(=O)O)CC3=O)cc2)cc1F (stereo unspecified) |  | inconclusive: 89.1 µM [inhibitor, single point]
Cc1cc(-c2ccccc2)nc(SCc2ccc(C#N)cc2)n1 |  | inactive
Cc1nc(C)c(C(=O)C2=C(O)C(=O)N(CCN3CCOCC3)C2c2ccco2)s1 (stereo unspecified) |  | inconclusive: 39.8 µM [inhibitor, partial curve]
CC[C@]12c3[nH]c4cc(-c5ccco5)ccc4c3CCN1C(=O)[C@@H](CC(=O)NCCCn1ccnc1)C[C@@H]2C(=O)N1CCN(C(=O)C2CC2)CC1 |  | inconclusive: 35.5 µM [inhibitor, partial curve, poor fit]
CCCn1nnc(NC(=O)/C=C/c2ccco2)n1 |  | inactive
CN(Cc1ccccc1)C(=O)COC(=O)c1cc(S(=O)(=O)N(C)C)ccc1N1CCCC1 |  | inactive
Cc1nc2nc(-c3ccc(Cl)cc3)cn2nc1C |  | inactive
CSc1nc2c(c(=O)n(C)c(=O)n2C)n1Cc1ccc(Cl)cc1 |  | inconclusive: 44.7 µM [inhibitor, partial curve, poor fit]
N=C(N)S/C=C\C(=O)O |  | inconclusive: 22.4 µM [inhibitor, partial curve, poor fit] and inconclusive: 31.6 µM [inhibitor, partial curve, poor fit]
COc1ccc(CCN(C)CC(O)c2ccccc2)cc1OC (stereo unspecified) |  | inconclusive: 0.0891 µM [inhibitor, full curve, poor fit]
Cn1c(=O)c2c(nc(SCC(=O)O)n2Cc2ccc(F)cc2Cl)n(C)c1=O |  | inactive
CCN(C(=O)CN1CCN(C)CC1)c1cccc2ccccc12 |  | inconclusive: 0.355 µM [inhibitor, full curve, poor fit]
O/N=C/c1ccccc1OCc1ccccc1Cl |  | inactive
CCOc1cccc(SCc2noc(C(=O)NCCOC)c2C(=O)O)c1 |  | inactive

SMILES | activity change, negative = inhibition | Potency
O=c1cc(O)c2sc3nc(-c4cccnc4)cc(C(F)(F)F)c3c2[nH]1 |  | inactive
CNc1nc(C(=O)N2C[C@@H](C(=O)O)[C@H](c3ccc4c(c3)OCO4)C2)cs1 |  | inconclusive: 14.1 µM [inhibitor, full curve]
Cc1cnc(NC(=O)CCc2ncc(-c3ccc(F)cc3)o2)s1 |  | inconclusive: 20 µM [inhibitor, partial curve, poor fit]
Cc1ccc(CN(C)C(=O)c2n[nH]c(=O)c3ccccc23)o1 |  | inconclusive: 141 µM [inhibitor, single point]
COc1ccc(N2CC(C(=O)O)CC2=O)cc1OC (stereo unspecified) |  | inactive
O=C(NCCc1cccc(Cl)c1)c1ccc(OC2CCN(Cc3ccccn3)CC2)cc1 |  | inconclusive: 28.2 µM [inhibitor, partial curve, poor fit]
CN(C)Cc1c(OC(=O)c2ccc(N)cc2)ccc2ccccc12 |  | inconclusive: 28.2 µM [inhibitor, partial curve, poor fit]
COc1ccc(N2CCN(CC(=O)Nc3ccccc3C(=O)NCc3ccccc3)CC2)cc1 |  | inactive
CCC(NC(=O)NCc1ccc2c(c1)OCO2)(C(F)(F)F)C(F)(F)F |  | inconclusive: 100 µM [inhibitor, partial curve, poor fit]
CCCCCCCOc1cccc(N)c1 |  | inconclusive: 5.01 µM [inhibitor, full curve, poor fit]
Cc1cc(C)n2cc(CSc3nc4ccccc4s3)nc2n1 |  | inactive
O=C(C[C@H]1C[C@H](C(=O)N2CCOCC2)[C@@]2(CCC3CCCC3)c3[nH]c4ccc(Cl)cc4c3CCN2C1=O)NCc1ccco1 |  | inconclusive: 44.7 µM [inhibitor, partial curve, poor fit]
CCn1c(C)c(C(C)=O)c(N2CCN(c3ccccc3)CC2)nc1=S |  | inconclusive: 39.8 µM [inhibitor, partial curve, poor fit]
CCN(CCNC(=O)C1CCN(S(=O)(=O)c2cccc3nsnc23)CC1)c1ccccc1 |  | inconclusive: 158 µM [inhibitor, partial curve, poor fit]
Cc1ccc2cc(CN(CCCO)S(=O)(=O)c3cccc4nsnc34)c(=O)[nH]c2c1 |  | inactive
CN1C(=O)c2cccn2CC1C(=O)NC1CCCC1 (stereo unspecified) |  | inconclusive: 35.5 µM [inhibitor, partial curve, poor fit]
CCCc1ccc(OCC(O)CN2CCN(c3ccccn3)CC2)cc1 (stereo unspecified) |  | inconclusive: 39.8 µM [inhibitor, partial curve, poor fit]
Cc1cc(C(F)F)nn1Cc1nc2c3c4c(sc3ncn2n1)CCCC4 |  | inactive
CC(NS(=O)(=O)c1ccc(C#N)cc1)c1cccs1 (stereo unspecified) |  | inconclusive: 112 µM [inhibitor, single point]
CNC(=O)CCn1ncc2cc(OC3CCc4cccc(-c5cccc(OC)c5)c43)ccc21 (stereo unspecified) |  | inconclusive: 35.5 µM [inhibitor, partial curve]
CN1CCN(S(=O)(=O)c2ccc(SCCOc3ccc(Cl)cc3)nc2)CC1 |  | inactive
COC(=O)c1ccc(/C=C/C(=O)c2ccccc2)o1 |  | inactive
O=C(NC(Cc1ccccc1)C(=O)O)/C(=C/c1ccc(Cl)cc1)NC(=O)c1ccco1 (stereo unspecified) |  | inconclusive: 100 µM [inhibitor, partial curve, poor fit]
